Test results: doi:10.1101/2022.06.27.497698
Like-named read-outs stand apart in the source and are kept apart here. Construct, isoform or probe ends are uncertain for at least one entry. For some of these results: A negative result means that nothing was seen under these conditions. At least one verdict rests on a figure or table, not on a statement of the authors. The comparison behind a weaker result is the experiment's own reference, which may not be listed here.

Key:
Assay in all cases: SPR
[1] = system: RsmQ (Pseudomonas fluorescens SBW25 plasmid pQBR103)
[2] = system: RsmQ H43A (Pseudomonas fluorescens SBW25 plasmid pQBR103); conditions: 100 nM protein
[3] = system: RsmQ R44A (Pseudomonas fluorescens SBW25 plasmid pQBR103); conditions: 100 nM protein

| Sequence | binding result ([1]; 100 nM RsmQ) | further results |
| --- | --- | --- |
| ATGGACGTCGCGCAGGAAGCGCAAACCTACCCTACGTCCTCCTGC [RsmY_1to25] | – | binding result [1]: binds |
| CAAGACACCACAGAGCAGCACCTACCCTACGTCCTCCTGC [NoBind_NoHP_RC] | – | binding result [1]: no binding |
| CAAGACACCCCAGAGCAGCACCTACCCTACGTCCTCCTGC [NoBind_NoHP_RC_2] | – | binding result [1]: no binding |
| CAGGAACGGACAGAGCCCTACCCTACGTCCTCCTGC [Full_Bind_NoHP_RC] | – | binding result ([1]; quickly dissociated): binds more weakly |
| CAGGACAGGACAGAGCCCTACCCTACGTCCTCCTGC [Bind_NoHP_RC] | – | binding result ([1]; quickly dissociated): binds more weakly |
| CCGCGCACCAAGCGCAAACCCTACCCTACGTCCTCCTGC [NoBind_HP_RC] | no binding | – |
| CCGCGCACCCAGCGCAAACCCTACCCTACGTCCTCCTGC [NoBind_HP_RC_2] | no binding | – |
| CCGCGCACCGAAGCGCAAACCCTACCCTACGTCCTCCTGC [FullBind_ACCGA_HP] | binds more weakly | – |
| CCGCGCACGAAGCGCAAACCCTACCCTACGTCCTCCTGC [Bind_CGA_HP] | binds more weakly | – |
| CCGCGCACGCAAGCGCAAACCCTACCCTACGTCCTCCTGC [FullBind_ACGCA_HP] | binds more weakly | – |
| CCGCGCACGGAAGCGCAAACCCTACCCTACGTCCTCCTGC [Full_Bind_HP_RC] | binds | binding result [2]: binds more weakly; binding result [3]: binds more weakly |
| CCGCGCACGGCAGCGCAAACCCTACCCTACGTCCTCCTGC [FullBind_ACGGC_HP] | binds more weakly | – |
| CCGCGCACGGTAGCGCAAACCCTACCCTACGTCCTCCTGC [FullBind_ACGGT_HP] | binds more weakly | – |
| CCGCGCACGTAAGCGCAAACCCTACCCTACGTCCTCCTGC [FullBind_ACGTA_HP] | binds more weakly | – |
| CCGCGCACTGAAGCGCAAACCCTACCCTACGTCCTCCTGC [FullBind_ACTGA_HP] | binds more weakly | – |
| CCGCGCAGCAAGCGCAAACCCTACCCTACGTCCTCCTGC [Bind_GCA_HP] | binds more weakly | – |
| CCGCGCAGGAAGCGCAAACCCTACCCTACGTCCTCCTGC [Bind_HP_RC] | binds | binding result [2]: binds more weakly; binding result [3]: binds more weakly |
| CCGCGCAGGCAGCGCAAACCCTACCCTACGTCCTCCTGC [Bind_GGC_HP] | binds more weakly | – |
| CCGCGCAGGGAAGCGCAAACCCTACCCTACGTCCTCCTGC [FullBind_AGGGA_HP] | – | binding result ([1]; slight preference, 100 nM RsmQ): binds |
| CCGCGCAGGTAGCGCAAACCCTACCCTACGTCCTCCTGC [Bind_GGT_HP] | binds more weakly | – |
| CCGCGCAGTAAGCGCAAACCCTACCCTACGTCCTCCTGC [Bind_GTA_HP] | binds more weakly | – |
| CCGCGCATGAAGCGCAAACCCTACCCTACGTCCTCCTGC [Bind_TGA_HP] | binds more weakly | – |
| CCGCGCATGGAAGCGCAAACCCTACCCTACGTCCTCCTGC [FullBind_ATGGA_HP] | – | binding result ([1]; slight preference, 100 nM RsmQ): binds |
| GCCCTGTGTCCACGGATTGGCACAACCTACCCTACGTCCTCCTGC [RsmZ_26to50] | – | binding result [1]: binds |
